Results on one molecule are retold here after article PMC11522702.

Sequences of proteins named here, by UniProt entry; tags and fusion partners are left off. Residues count along the entry.
UniProt P30532, residues 23-468: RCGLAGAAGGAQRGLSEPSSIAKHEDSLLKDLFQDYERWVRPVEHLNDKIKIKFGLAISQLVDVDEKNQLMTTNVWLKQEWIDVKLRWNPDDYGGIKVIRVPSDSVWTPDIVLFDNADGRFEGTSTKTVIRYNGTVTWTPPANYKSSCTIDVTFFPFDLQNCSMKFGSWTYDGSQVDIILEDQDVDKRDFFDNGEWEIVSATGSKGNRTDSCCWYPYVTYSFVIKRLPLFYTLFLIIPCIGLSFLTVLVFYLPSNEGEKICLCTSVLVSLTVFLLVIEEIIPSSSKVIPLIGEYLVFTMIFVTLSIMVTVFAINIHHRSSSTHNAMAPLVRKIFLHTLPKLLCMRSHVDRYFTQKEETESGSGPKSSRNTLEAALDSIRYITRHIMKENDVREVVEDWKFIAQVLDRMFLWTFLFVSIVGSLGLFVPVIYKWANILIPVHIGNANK

No constants are given. Whether binding was seen depends on the method and setting. Binding seen in cells or lysates may run through a third protein. Some binding calls cover weakened binding; strength is not graded here.

The assay concerns the target Flag-CHRNA5 (UniProt P30532). The assay can be described thus: co-IP; Flag-CHRNA5 overexpressed in Cal27 and Tu686 cells; IP with magnetic beads conjugated with anti-Flag antibody; western blot with antibodies against FLAG and CES1; IgG as negative control.

B1: CES1 (enzyme, UniProt P23141 18-567)
chain: GHPSSPPVVDTVHGKVLGKFVSLEGFAQPVAIFLGIPFAKPPLGPLRFTPPQPAEPWSFVKNATSYPPMCTQDPKAGQLLSELFTNRKENIPLKLSEDCLYLNIYTPADLTKKNRLPVMVWIHGGGLMVGAASTYDGLALAAHENVVVVTIQYRLGIWGFFSTGDEHSRGNWGHLDQVAALRWVQDNIASFGGNPGSVTIFGESAGGESVSVLVLSPLAKNLFHRAISESGVALTSVLVKKGDVKPLAEQIAITAGCKTTTSAVMVHCLRQKTEEELLETTLKMKFLSLDLQGDPRESQPLLGTVIDGMLLLKTPEELQAERNFHTVPYMVGINKQEFGWLIPMQLMSYPLSEGQLDQKTAMSLLWKSYPLVCIAKELIPEATEKYLGGTDDTVKKKDLFLDLIADVMFGVPSVIVARNHRDAGAPTYMYEFQYRPSFSSDMKPKTVIGDHGDELFSVFGAPFLKEGASEEEIRLSKMVMKFWANFARNGNPNGEGLPHWPEYNQKEGYLQIGANTQAAQKLKDKEVAFWTNLFAKKAVEKPPQTEHIEL
With B1, the binding entry is reported as “binds”.
